This is one part of the list. These are further read-outs of the screen, such as a control signal, another cell line or another target. No call is given for them. Most of these compounds were active or inconclusive in the main read-out, so they are no random draw. The note in brackets gives the kind of curve behind each potency; many fits are weak.
Experiment: qHTS Assay for Lipid Storage Modulators in Drosophila S3 Cells;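 on cell number change: cells counted by Cell Tracker Red CMTPX staining in the red channel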
Conditions: BODIPY lipid droplet fluorescence, 18-24 h; for cell number change: measured here: cell count max response, cells fed with added oleic acid
Method in brief: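 Drosophila S3 cells loaded with oleic acid (400 uM, as added) and compounds at several concentrations; lipid droplets imaged by 488-nm laser-scanning cytometry, 500–530 nm intensity and object ratio to cell channel. Percent activity normalized to 20 uM Triacsin C.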

[1] = measured here: lipid fluorescence (Fed channel) AC50, cells fed with added oleic acid
[2] = measured here: cell number channel AC50, cells fed with added oleic acid

| SMILES | cell number change [%] | AC50 [1] | AC50 [2] |
| --- | --- | --- | --- |
| CCC(=O)N1CCN(c2ccccc2NC(=S)NC(=O)c2ccco2)CC1 | 3 | 6.51 µM [rising, single point] |  |
| CCOCCc1nnc(NC(=O)C2CC(=O)N(c3ccc(OCC)cc3)C2)s1 (configuration not stated) | -2.63 | 0.562 µM [falling, full curve, poor fit] |  |
| Cc1cc(C)n(CC(C)O)c(=O)c1C#N (configuration not stated) | -48.9 | 29.1 µM [falling, single point] | 20.6 µM [falling, single point] |
| CC(C)CN1CCN(Cc2cccc3cccnc23)CC1CCO (configuration not stated) |  | 0.103 µM [rising, full curve, poor fit] |  |
| S=C(Nc1ccccc1)N(Cc1ccccc1)Cc1ccncc1 | 117 |  |  |
| COc1ccc(Nc2nc(NCc3ccco3)nc(N3CCOCC3)n2)cc1 | 5.84 | 1.16 µM [rising, full curve] |  |
| Cc1nc2c(cnn2-c2ccc(Cl)cc2)c(=O)n1-c1ccc(N2CCC(C)CC2)cc1 | -4.57 | 29.1 µM [falling, partial curve, poor fit] |  |
| O=C1c2ccccc2S(=O)(=O)N1CCS(=O)(=O)c1ccc(F)cc1 | -37.9 |  | 29.1 µM [falling, single point] |
| CC(=O)Nc1cccc(C(=O)OCC(=O)c2ccc(S(=O)(=O)N3CCCCC3)cc2)c1 | -29 |  |  |
| CCOC(=O)C1CCN(C(=O)CN(C)S(=O)(=O)c2ccc3c(c2)c(=O)n(C)c(=O)n3C)CC1 |  | 6.51 µM [rising, single point] |  |
| CC(=O)c1ccc(S(=O)(=O)N(C)CC(=O)Nc2cc(C)on2)cc1 | -13.8 | 3.26 µM [falling, single point] |  |
| O=C(/C=C/Nc1ccccc1)C(F)(F)F | -16.2 |  |  |
| CCC(C)NC(=O)Cc1ccc(-c2ccccc2)cc1 (configuration not stated) | 151 |  | 29.1 µM [rising, single point] |
| O=C(Nc1cccc(Cl)c1)Nc1ccc2nccnc2c1 | -58.8 | 32.6 µM [falling, single point] | 29.1 µM [falling, single point] |
| NS(=O)(=O)c1ccc(CCNC(=O)CNC(=O)c2ccc(Br)o2)cc1 | -4.55 |  |  |
| Cc1oc2cc(O)ccc2c(=O)c1Oc1ccccc1Br | -14.4 | 29.1 µM [falling, single point] |  |
| Cc1cccc2nc(CSc3ncccc3C(=O)O)cn12 | -20.8 | 18.4 µM [rising, single point] |  |
| O=C(CCCSc1nc2ccccc2[nH]1)N1CCN(c2ccc([N+](=O)[O-])cc2)CC1 | 31.9 | 3.66 µM [rising, partial curve] | 8.2 µM [rising, partial curve] |
| CCc1ccc(NS(=O)(=O)c2ccc(OC)c(C)c2)cc1 | -150 |  | 29.1 µM [falling, single point] |
| O=C(COC(=O)Cc1ccsc1)Nc1ccc(Br)cc1F | -30.2 | 1.84 µM [falling, partial curve, poor fit] | 2.06 µM [falling, full curve, poor fit] |

Complete entries from above:
CC(C)CN1CCN(Cc2cccc3cccnc23)CC1CCO (configuration not stated) is entered as AC50 [1]: 0.103 µM [rising, full curve, poor fit]
O=C(/C=C/Nc1ccccc1)C(F)(F)F is entered as cell number change [%]: -16.2

Additional structures:

| SMILES | cell number change [%] | AC50 [1] | AC50 [2] |
| --- | --- | --- | --- |
| C=C(C)COc1ccc(-c2n[nH]c(C)c2-c2ccccc2)c(O)c1 | -132 |  | 23.1 µM [falling, partial curve] |
| COCCN(C(=O)COC(=O)c1ccc(Cl)nc1)c1c(N)n(Cc2ccccc2)c(=O)[nH]c1=O | -8.43 |  |  |
| COc1cccc(/C=C/c2nc(C#N)c(NCC(C)C)o2)c1 | -39.1 |  | 10.3 µM [falling, single point] |
| CC(C)c1cccc(C(C)C)c1NC(=O)CN(C)C1CCS(=O)(=O)C1 (configuration not stated) | -18.1 | 32.6 µM [falling, partial curve] |  |
| CC1CCCCC1NC(=O)COC(=O)c1ccc2c(c1)OCCO2 (configuration not stated) | -24.7 | 23.1 µM [falling, single point] |  |
| Cc1cccc(OCC(=O)OC2CCN(C)CC2)c1 | 25.1 | 10.3 µM [rising, partial curve] |  |
| CC1(C)COC2(OC1)C(=O)N(CN1CCOCC1)c1ccccc12 | 22.5 | 32.6 µM [rising, single point] |  |
| S=C(c1ccc(Br)cc1)N1CCCC1 | 0.278 | 4.11 µM [falling, single point] |  |
| Cc1ccc(C)c(NC(=O)c2cnn(-c3ccccc3)c2C)c1 | 4.11 | 0.58 µM [falling, single point] |  |
| CCC1(c2ccccc2)NC(=O)N(CC(=O)Nc2ccc(OC)nc2)C1=O (configuration not stated) | 0.194 | 13 µM [rising, single point] |  |
| Cc1cc(C)cc(N/C(N)=N/c2nc(C)cc(C)n2)c1 | -9.28 | 23.1 µM [rising, single point] |  |
| Cn1cc(S(=O)(=O)N2CCCC2)cc1C(=O)Nc1cccc(C(F)(F)F)c1 | -1.89 | 6.51 µM [rising, single point] |  |
| N#CCCN1CCN(C(=S)c2ccc(-c3ccc(Cl)cc3)o2)CC1 | -25.1 |  |  |
| O=C(OCCNc1ncc(C(F)(F)F)cc1Cl)c1ccc(S(=O)(=O)N2CCOCC2)cc1 | -6.63 | 0.92 µM [falling, full curve, poor fit] |  |
| Cc1ccc(-c2ccccc2NC(=O)CCl)o1 | -50.7 | 0.58 µM [rising, single point] | 29.1 µM [falling, single point] |
| O=[N+]([O-])c1ccc(Cl)cc1Sc1nc2ccccc2o1 | -27.7 | 32.6 µM [falling, single point] |  |
| Cc1ccc(-c2n[nH]c(=S)n2/N=C/c2cccs2)cc1 | -48.9 | 16.4 µM [falling, single point] | 14.6 µM [falling, partial curve] |
| Cc1ccc(NC(=O)C2CCN(C(=O)NCc3ccccc3)CC2)cc1C | 8.97 |  |  |
| O=C(CC(c1cccs1)S(=O)(=O)c1ccccc1)c1ccc(F)cc1 (configuration not stated) | -26.6 | 6.51 µM [falling, single point] |  |
| O=C(Nc1ccccc1C(=O)NC(Cc1ccccc1)C(=O)O)c1ccccc1 (configuration not stated) | 1.27 | 6.51 µM [falling, single point] |  |

| SMILES | cell number change [%] | AC50 [1] | AC50 [2] |
| --- | --- | --- | --- |
| COc1ccc(C(C(=O)NCC2CCCO2)N(C(=O)Cn2nnc3ccccc32)c2ccc(NC(C)=O)cc2)cc1 (configuration not stated) | 19.2 |  | 0.82 µM [rising, full curve, poor fit] |
| CCn1cc(C(=O)OCC(=O)c2cc(C)n(-c3ccc(OC(F)F)cc3)c2C)c(=O)c2ccc(C)nc21 | -11 | 6.51 µM [rising, partial curve, poor fit] | 1.3 µM [falling, full curve] |
| CSc1ccc(/C=N/NC(=O)c2ccc(C)c(C)c2)cc1 | 12 | 3.66 µM [rising, single point] | 3.66 µM [rising, single point] |
| O=S(=O)(c1cnc(Cl)c(Cl)c1)N1CCc2ccccc21 | -7.42 | 0.206 µM [falling, full curve, poor fit] |  |
| O=C(/C=C/c1ccc(OCc2cccc(Cl)c2)cc1)N1CCOCC1 | 25.7 |  |  |
| COc1ccc(Cn2c(SCc3ccc(C)cc3)nc3cc(OC)c(OC)cc3c2=N)cc1Cl | -166 | 23.1 µM [falling, single point] | 11.6 µM [falling, partial curve] |
| CC(C)CCSc1nc(N)c(C#N)cc1C#N |  |  | 6.51 µM [rising, single point] |
| COc1ccc(CCC(=O)Nc2nnc(C(C)(C)C)s2)cc1 | -18 | 6.51 µM [falling, single point] |  |
| Cc1nn(-c2cc(C)c3ccccc3n2)c2c1CCC2 |  | 1.64 µM [rising, partial curve] |  |
| Cc1ccc(C)c(C(=O)C(C)OC(=O)CN2C(=O)NC3(CC(C)CC(C)(C)C3)C2=O)c1 (configuration not stated) | -0.867 | 0.366 µM [falling, full curve] |  |
| O=C1N=c2ccc(Br)cc2=C1c1sc(=S)n(NS(=O)(=O)c2ccccc2)c1O | -12.1 |  | 0.00461 µM [falling, full curve, poor fit] |
| CCOC(=O)c1nc(N)c(=O)n(-c2ccccc2)n1 |  | 0.116 µM [rising, single point] |  |
| O=C(Nc1ccc(S(=O)(=O)NCC2CCCO2)cc1)c1ccccc1 (configuration not stated) | -15 | 29.1 µM [falling, single point] |  |
| O=C(Cn1ccc2ccccc2c1=O)NCC(=O)N1CCN(c2ccc(F)cc2)CC1 | 46 |  | 29.1 µM [rising, single point] |
| Cc1ccc(CNS(=O)(=O)c2ccc3c(c2)N(C)CCO3)cc1 |  | 0.116 µM [rising, single point] |  |
| CCCCCCCCNC(=O)CC(NS(=O)(=O)c1ccc(NC(C)=O)cc1)C(C)C (configuration not stated) | -1.15 | 29.1 µM [rising, single point] |  |
| C=CCN(C(=O)CSc1nnnn1C)c1nc(-c2ccccc2)cs1 | 72.4 | 25.9 µM [rising, single point] | 23.1 µM [rising, single point] |
| COc1ccc(CN(C)C(=O)Cn2ccc(NC(=O)OCc3ccccc3)nc2=O)cc1OC | -51.8 | 29.1 µM [falling, single point] | 29.1 µM [falling, single point] |
| Cc1ccc(C)c(NC(=O)CN(C)C(=O)CN2C(=O)NC3(CCc4ccccc43)C2=O)c1 (configuration not stated) | 14.9 | 7.31 µM [rising, single point] |  |
| CCC(=O)c1ccc(OCCN2CCOCC2)cc1 | 1.66 | 1.84 µM [falling, partial curve] |  |
